Data on 8 compounds can be found in the supplement of paper PMC12889115.

For this experiment, the system named is Salmonella enterica serovar Typhimurium SL1344. Put plainly: bacterial growth OD600 after 18 h with compound and polymyxin B; higher = more bacterial growth (less inhibition). The following applies: 50 µM, Mueller-Hinton broth.

Structures are written as SMILES. The list shows a part of the results. These are raw signals, not scaled to a control.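 In the initial screen, polymyxin B was used at a concentration that permeabilizes Salmonella's outer membrane but not its inner membrane. Maximum growth was set by DMSO wells with or without polymyxin B. Since plates varied, data were ranked per plate, and compounds giving the lowest OD600 advanced as hits.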

Take `CCOc1ccc2nc(N3CCCN(Cc4cccc5c4OCO5)CC3)nc(C)c2c1`: the “bacterial growth OD600” value (polymyxin B 0.75 µg/mL) is 0.19.

Turning to `CN(Cc1cccnc1)C(=O)CC(c1ccccc1)c1ccc2c(c1)OCO2` (stereo not drawn), where the note is “polymyxin B 0.75 µg/mL”, the “bacterial growth OD600” value was determined as 0.67.

Regarding `O=C(CN1CCC(c2ccccc2)CC1)N1CCCC(CO)(Cc2ccccc2)C1` (stereo not drawn), the “bacterial growth OD600” value (polymyxin B 1 µg/mL) was 0.736.

For the compound `COCCN(Cc1ccccn1)C(Cc1ccccc1)C1CCN(Cc2c(O)cccc2OC)CC1` (stereo not drawn), under “polymyxin B 0.75 µg/mL”, the “bacterial growth OD600” value came out at 0.752.

As for `COCCN1C(=O)CC(CC(=O)N2CCCC(C(=O)c3ccccc3)C2)(c2ccccc2OC)C1=O` (stereo not drawn), the “bacterial growth OD600” value (polymyxin B 0.75 µg/mL) came out at 0.828.

As to `Cc1nc(C(=O)N2CCC(n3nccc3NC(=O)C(C)(C)C)CC2)cs1`, the “bacterial growth OD600” value (polymyxin B 1 µg/mL) came to 0.919.

As for `CSc1nccc(-c2cc(Cl)c3c(c2)CC(CNC(=O)Cc2cn4ccsc4n2)O3)n1` (stereo not drawn), the “bacterial growth OD600” value (polymyxin B 0.75 µg/mL) came to 0.788.

For `CCOC(=O)C1(Cc2ccc(F)cc2)CCCN(C(=O)CC(C)C)C1` (stereo not drawn), for the setting “polymyxin B 1 µg/mL”, the “bacterial growth OD600” value came to 0.801.
